The values below come from PubChem BioAssay AID2685 (National Center for Advancing Translational Sciences (NCATS), 2010).

Each structure is given as a SMILES string. The list shows a part of the results. Shown are side measurements of this screen, not its main read-out; they come without a call. Compounds called inactive in the main read-out are mostly missing here. Words in brackets tell the shape of the fitted curve; partial curves, single points and poor fits give uncertain potencies.

Broadly, the AC50 is the concentration at which the activity in the assay is half-maximal.

This experiment can be described thus: qHTS Assay for Lipid Storage Modulators in Drosophila S3 Cells.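 On cell number change: cells counted by Cell Tracker Red CMTPX staining in the red channel.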 To be noted: BODIPY lipid droplet fluorescence, 18-24 h; for cell number change: measured here: cell count max response, cells fed with added oleic acid. A digest of the protocol:
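Drosophila S3 cells loaded with oleic acid (400 uM, as added) and compounds at several concentrations; lipid droplets imaged by 488-nm laser-scanning cytometry, 500–530 nm intensity and object ratio to cell channel. Percent activity normalized to 20 uM Triacsin C.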

The mark [1] stands for this setting: measured here: lipid fluorescence (Fed channel) AC50, cells fed with added oleic acid.
Setting [2] is: measured here: cell number channel AC50, cells fed with added oleic acid.

As to `CCOc1ccc(C(=O)NCC(=O)Nc2ccc(N3CCOCC3)cc2)cc1OCC`, the cell number change is 92.2%.

For the compound `COc1ccc(C(=O)Oc2cc(C(=S)N3CCOCC3)ccc2OC)cc1`, the cell number change is -11.4%. Moreover, under setting [1], the AC50 was 29.1 µM [rising, single point].

In the case of `CC(C)NCCCCOc1ccccc1-c1ccccc1`, the cell number change is -5.93%. In addition, the AC50 under setting [2] is 0.092 µM [rising, full curve, poor fit].

As for `O=C(CCCCC(=O)Nc1ccccc1Cl)Nc1ccccc1Cl`, the cell number change turned out to be 17.5%. The AC50 under setting [1] is 32.6 µM [rising, partial curve, poor fit].

On to `CCOC(=O)/C(=C/c1ccc(OC)cc1)NC(=O)c1ccco1`, for which the cell number change is -25.1%. For the same compound, under setting [2], the AC50 was 2.31 µM [falling, full curve, poor fit].

On to `O=C(CN1CCN(Cc2ccccc2)CC1)N/N=C/C=C/c1ccco1`, for which the cell number change is 20%. The AC50 under setting [1] is 4.11 µM [rising, single point].

Consider `CSc1ccccc1OCc1cc(C(=O)N2CCC[C@H]2C(N)=O)no1`, for which the cell number change was determined as 10.7%. For the same compound, under setting [1], the AC50 was 29.1 µM [falling, single point].

In the case of `CN(C)NC1=CC(=[N+]2CCCC2)CC(C)(C)C1`, the cell number change turned out to be 0.146%. Under setting [1], the AC50 was 0.206 µM [falling, full curve].

`COc1ccc(C)cc1NS(=O)(=O)c1ccc2c(c1)N(C)CCO2`: under setting [1], the AC50 was 18.4 µM [falling, partial curve].

On to `O=C(Cn1nnc(-c2ccccc2)n1)Nc1cccc(S(=O)(=O)N2CCCC2)c1`, for which the cell number change was 70.4%. For the same compound, the concentration at half-maximal activity (AC50) under setting [2] was 14.6 µM [rising, partial curve].

Consider `CC(C)C(=O)Nc1cccc(C(=O)Nc2nccs2)c1`, for which the cell number change worked out at 3.57%. In addition, under setting [1], the AC50 was 0.731 µM [rising, full curve, poor fit].

On to `CN(C)C(=O)c1c2c(nc3ccccc13)-c1ccccc1CC2`, for which the cell number change is -16%. In addition, under setting [1], the AC50 was 0.366 µM [falling, full curve, poor fit].

On to `Cc1c(O)ccc2c(CC(=O)N[C@@H](Cc3c[nH]c4ccccc34)C(=O)O)cc(=O)oc12`, for which the cell number change was -0.901%.

In the case of `CC(Oc1cc2oc(=O)c3c(c2cc1Cl)CCC3)C(=O)NC1CC(C)(C)NC(C)(C)C1` (stereo not given), the cell number change was 19.5%. The AC50 under setting [1] is 20.6 µM [rising, partial curve].

With `c1ccc(CCc2ccccc2-c2nc(-c3cccnc3)no2)cc1`, the AC50 under setting [2] was 1.64 µM [rising, partial curve, poor fit] and the AC50 under setting [1] is 0.411 µM [rising, full curve].

On to `Cc1cccc(Cn2ccc(N)n2)c1`, for which the cell number change was 22.3%.

`O=C(O)c1ccc(COc2ccccc2/C=C2\NC(=O)N(Cc3ccccc3F)C2=O)cc1`: the cell number change was -19.9%. Further, under setting [1], the AC50 is 0.082 µM [falling, full curve, poor fit].

As for `COC(=O)c1ccccc1NC(=O)CNc1ccc(F)c(S(=O)(=O)N2CCOCC2)c1`, the AC50 under setting [1] is 1.3 µM [falling, full curve].

With `O=[N+]([O-])c1ccccc1/C=C/c1ccc2ccccc2n1`, the cell number change was -1.75%. Besides, the AC50 under setting [1] was 4.61 µM [falling, single point].

Turning to `Cc1cccc(C(C(=O)NCc2ccc(F)cc2)N(C(=O)c2csnn2)C2CC2)c1` (stereo not given), the cell number change came out at 14.2%. For the same compound, the AC50 under setting [1] is 11.6 µM [rising, single point].

For the compound `O=C(Nc1ccc2c(c1)OCO2)C1CC1`, the cell number change was -5.66%. Under setting [1], the AC50 was 0.517 µM [rising, partial curve, poor fit].

For `COc1ccccc1C(=O)COC(=O)c1nc(Cl)ccc1Cl`, the cell number change worked out at 31.7%. Further, the AC50 under setting [2] is 0.058 µM [rising, full curve, poor fit].

On to `Cc1ccc(NC(=O)CSc2nnc(C)c(=O)n2N)cc1`, for which the cell number change is -28.4%. For the same compound, under setting [2], the AC50 is 4.11 µM [falling, full curve, poor fit]. For the same compound, the AC50 under setting [1] was 3.66 µM [falling, full curve].

Turning to `O=C(NC(=S)Nc1ccc(N2CCOCC2)cc1)c1cccc(Cl)c1Cl`, the cell number change was 2.59%. The AC50 under setting [1] was 0.103 µM [rising, full curve, poor fit].

In the case of `COC(=O)c1ccc(CSc2nnc3ccccn23)o1`, the cell number change is 1.56%.

`Cc1cccc(C(=O)NC2CC3CCCC(C2)N3S(=O)(=O)c2ccccc2)c1` (stereo not given): the cell number change stood at 85.2%. The AC50 under setting [2] is 1.64 µM [rising, full curve].

`CC(C)NC(=O)Cn1c(=O)cnc2ccccc21`: the cell number change is -2.36%. Further, the AC50 under setting [1] is 0.103 µM [falling, full curve, poor fit].

With `CCN(CC)c1ccc(/C=C(\C#N)C(=O)c2ccc(Br)cc2)cc1`, the AC50 under setting [1] is 29.1 µM [falling, single point].

As for `COc1cccc(C(=O)NCCS(=O)(=O)N(C)C2CCCCC2)c1`, the cell number change is -2.51%. The AC50 under setting [1] was 29.1 µM [falling, single point].

On to `CC(C)CCNc1nc(N)c([N+](=O)[O-])c(N2CCCCCC2)n1`, for which the cell number change is 5.41%. Further, the AC50 under setting [2] is 0.92 µM [rising, full curve, poor fit].

Take `c1cc(-c2nc3cc(Cc4ccc5oc(-c6ccncc6)nc5c4)ccc3o2)ccn1`: the cell number change worked out at 9.92%. In addition, the AC50 under setting [1] is 2.91 µM [rising, partial curve, poor fit].

For the compound `COCCNC(=O)c1ccc(CSc2nc3ccccc3s2)cc1`, the cell number change was -32.7%. Besides, the concentration at half-maximal activity (AC50) under setting [2] was 35.5 µM [falling, single point].

With `Cc1c(S(=O)(=O)N2CCCC2)c(=O)n(C)c(=O)n1C`, the cell number change is -55%. In addition, under setting [2], the AC50 is 13 µM [falling, partial curve, poor fit]. Besides, the AC50 under setting [1] is 25.9 µM [falling, partial curve].

Turning to `Cc1ccc([N+](=O)[O-])cc1N=Cc1ccc(Br)s1`, the cell number change is -14.2%. Also, the AC50 under setting [2] is 5.8 µM [falling, partial curve]. Moreover, the AC50 under setting [1] was 0.0206 µM [falling, full curve, poor fit].

In the case of `COc1ccc(NC(=O)C(Cc2cc(C)cc(C)c2)C(C)C(=O)O)cc1` (stereo not given), the cell number change worked out at 43.2%. Moreover, the AC50 under setting [2] is 29.1 µM [rising, single point].

Consider `CC(=O)C1=C(O)C(=O)N(CCCO)C1c1ccccc1` (stereo not given), for which the cell number change was -5.34%. In addition, the AC50 under setting [1] was 1.46 µM [falling, partial curve].

Take `O=C1CSC(c2ccc(F)cc2)N1c1nc2ccccc2s1` (stereo not given): the cell number change came to 23.4%. Moreover, the AC50 under setting [1] is 11.6 µM [rising, partial curve].

In the case of `CC(=O)Nc1ccc(S(=O)(=O)N(C)CC(=O)N/N=C/c2cccs2)cc1`, the cell number change was -17.9%.

Consider `CCOC(=O)c1c(C)noc1-c1ccco1`, for which the cell number change is -1.45%. Besides, under setting [2], the AC50 was 0.116 µM [falling, full curve, poor fit].

For the compound `COc1cc2c(cc1OC)CN(S(=O)(=O)c1cccc(F)c1)CC2`, the cell number change is -22.2%. The AC50 under setting [1] was 29.1 µM [rising, single point].

Consider `CCC(CC)C(=O)Nc1cccc(-c2nc3ccccc3o2)c1`, for which the cell number change is -32%. Further, under setting [2], the AC50 is 29.1 µM [falling, single point].

Turning to `COc1ccc(S(=O)(=O)N(CC(=O)N/N=C/c2cccs2)c2cc(C)cc(C)c2)cc1OC`, the cell number change worked out at 95.7%. The AC50 under setting [2] is 1.3 µM [rising, full curve]. Also, the AC50 under setting [1] is 0.92 µM [rising, partial curve].

As to `CCN(CC(=O)Nc1ccc(NC(C)=O)cc1)C(=O)c1cccnc1Sc1ccc(C)c(C)c1`, the cell number change turned out to be 9.77%. For the same compound, the AC50 under setting [1] was 13 µM [falling, partial curve, poor fit].

Regarding `CN(C)S(=O)(=O)c1ccc(C(=O)Nc2ccc(Cl)cc2)cc1`, the cell number change is 25.7%. Further, under setting [1], the AC50 is 6.51 µM [rising, single point].

For `Cc1noc(C)c1S(=O)(=O)N(CC(=O)N1CCn2c1nc1ccccc12)c1ccc(C(C)C)cc1`, the cell number change turned out to be 11.1%.

For the compound `Cc1[nH]n(-c2cccc3ccccc23)c(=O)c1/C=N/NC(=O)c1cccc([N+](=O)[O-])c1`, the cell number change is 0.493%. In addition, the AC50 under setting [1] was 2.06 µM [rising, full curve, poor fit].

For the compound `Cc1ccc(S(=O)(=O)N2CCCC2CNC(=O)c2ccccc2)cc1` (stereo not given), the cell number change was -100%. Besides, under setting [2], the AC50 was 8.2 µM [falling, partial curve]. Besides, under setting [1], the AC50 was 2.59 µM [falling, single point].

For the compound `O=C(COc1ccc(Cl)cc1)Nc1ccccc1C(=O)NCc1cccnc1`, the cell number change was -21.9%. Besides, under setting [1], the AC50 is 20.6 µM [falling, partial curve, poor fit].

For `Cc1cc2c(c(=O)o1)C(C1C=CCCC1)C(C#N)=C(N)O2` (stereo not given), the cell number change is 29.3%. Also, the AC50 under setting [2] was 1.64 µM [rising, full curve, poor fit].

`CC(=O)NS(=O)(=O)c1ccc(NS(=O)(=O)c2ccc(F)cc2)cc1`: the cell number change was -12.7%. Also, the AC50 under setting [1] was 23.1 µM [falling, partial curve].

For the compound `CC12CCC(C(=O)N3CCc4ccccc43)(CC1=O)C2(C)C` (stereo not given), the cell number change was found to be 8%.

Regarding `CC1(C(=O)O)CCC(C(=O)NC2CCCCC2)C1(C)C` (stereo not given), the cell number change is -54.8%. Further, the AC50 under setting [2] was 29.1 µM [falling, single point]. For the same compound, under setting [1], the AC50 was 29.1 µM [falling, single point].

For `CC(C)NC(=O)CN(Cc1ccc(F)cc1)C(=O)CCC(=O)Nc1ccccn1`, the cell number change is -1.3%.

As to `CCC(CC)c1nnc(NC(=O)C2CC(=O)N(CCc3ccc(OC)c(OC)c3)C2)s1` (stereo not given), the cell number change was 27%.

As for `Cc1ccc(C(=O)Nc2cccc(C(F)(F)F)c2)cc1NC(=O)c1nccn1C`, the cell number change was 26%. Also, under setting [1], the AC50 was 0.0731 µM [rising, full curve, poor fit].

Turning to `COc1ccc(N2CCN(C(=O)CSc3nnc(C)c(=O)[nH]3)CC2)cc1`, the AC50 under setting [1] was 23.1 µM [falling, partial curve].

For the compound `COc1ccc(CNC(=O)C2CCN(S(=O)(=O)N3CCCCC3)CC2)cc1`, under setting [1], the AC50 was 0.58 µM [rising, single point].

`COc1ccc(N2CCN(C(=O)CCC(=O)N3CCOc4ccc(C)cc43)CC2)cc1`: the cell number change amounted to 10.4%.

As for `CN(CCCNC(=O)c1ccc(CS(=O)c2ccc(Br)cc2)o1)Cc1ccccc1` (stereo not given), the cell number change was -9.44%. The AC50 under setting [1] is 29.1 µM [falling, single point].

With `Cc1ccc(SCc2cc(=O)[nH]c(N3CCN(Cc4ccc5c(c4)OCO5)CC3)n2)cc1`, the cell number change was -20.2%. For the same compound, under setting [1], the AC50 was 3.66 µM [falling, full curve].

On to `Cc1ccc(-c2nc(N3CCN(C)CC3)c3ccccc3n2)cc1`, for which the cell number change came out at 2.07%. Under setting [1], the AC50 was 3.26 µM [rising, full curve, poor fit].

Take `COc1ccc2ccccc2c1/C=N/NC(=O)c1cccc(Br)c1`: the cell number change is 17%. The AC50 under setting [1] was 9.2 µM [rising, partial curve].
